Test results as given in patent publication US20130018039A1, “IMIDAZOLYL-IMIDAZOLES AS KINASE INHIBITORS” (priority 2010, published 2013).
Where a name gives a salt, the structure may show the parent alone. Some entries share one result that the patent states for a list of compounds. One block for each compound: values may come before it.

The chains behind the UniProt entries cited, without tags or fusion partners.
UniProt O43353, whole entry: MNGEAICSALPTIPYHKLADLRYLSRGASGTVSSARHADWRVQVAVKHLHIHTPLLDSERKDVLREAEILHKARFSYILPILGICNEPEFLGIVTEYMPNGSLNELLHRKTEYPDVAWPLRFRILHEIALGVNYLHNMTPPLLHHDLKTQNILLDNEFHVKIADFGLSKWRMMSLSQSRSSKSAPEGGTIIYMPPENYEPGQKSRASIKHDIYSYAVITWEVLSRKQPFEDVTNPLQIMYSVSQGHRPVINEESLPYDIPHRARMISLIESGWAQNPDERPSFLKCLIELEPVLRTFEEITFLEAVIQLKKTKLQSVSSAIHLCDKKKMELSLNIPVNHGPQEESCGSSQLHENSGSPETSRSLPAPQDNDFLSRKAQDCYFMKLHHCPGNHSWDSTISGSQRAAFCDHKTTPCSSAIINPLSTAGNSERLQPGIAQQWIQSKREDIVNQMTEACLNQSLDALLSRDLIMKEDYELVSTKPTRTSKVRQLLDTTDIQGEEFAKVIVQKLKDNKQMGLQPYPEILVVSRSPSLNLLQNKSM

Biological target: T1, RIPK2 (full length FLAG His tagged RIPK2; RIP2 kinase) (Homo sapiens, UniProt O43353)
T1 construct: Full length FLAG His tagged RIPK2 was purified from a Baculovirus expression system; FLAG (N); 6His (N); made in house; host or cells: Spodoptera frugiperda (Sf9) insect cells, baculovirus
Experiment: Fluorescent polarization based binding assay, competition with a fluorescently labeled ATP competitive ligand at the ATP binding pocket of RIPK2
Conditions: pIC50s averaged, minimum of 2 experiments; fluorescent ligand 5 nM
Text: A fluorescent polarization based binding assay was developed to quantitate interaction of novel test compounds at the ATP binding pocket of RIPK2, by competition with a fluorescently labeled ATP competitive ligand. Full length FLAG His tagged RIPK2 was purified from a Baculovirus expression system and was used at a final assay concentration of twice the KDapparent. A fluorescent labeled ligand (5-({[2-({[3-({4-[(5-hydroxy-2-methylphenyl)amino]-2-pyrimidinyl}amino)phenyl]carbonyl}amino)ethyl]amino}carbonyl)-2-(6-hydroxy-3-oxo-3H-xanthen-9-yl)benzoic acid, prepared as described below) was used at a final assay concentration of 5 nM. Both the enzyme and ligand were prepared in solutions in 50 mM HEPES pH7.5, 150 mM NaCl, 10 mM MgCl2, 1 mM DTT, and 1 mM CHAPS. Test compounds were prepared in 100% DMSO and […] was dispensed to individual wells of a multiwell plate. Next, 5 ul RIPK2 was added to the test compounds at twice the final assay concentration, and incubated at room temperature for 10 minutes. Following the incubation, 5 ul of the fluorescent labeled ligand solution, was added to each reaction, at twice the final assay concentration, and incubated at room temperature for at least 10 minutes. Finally, samples were read on an instrument capable of measuring fluorescent polarization. Test compound inhibition was expressed as percent (%) inhibition of internal assay controls.
For concentration response experiments, normalized data were fit and pIC50s determined using conventional techniques. For example, the following four parameter logistic equation may be used: y=A+((B−C))/(1+(10^x)/(10^C)^D), where: y is the % activity (% inhibition) at a specified compound concentration; A is the minimum % activity; B is the maximum % activity; C=log10(IC50); D=Hill slope; x=log10 (compound concentration [M]); and plC50=(—C).
The pIC50s are averaged to determine a mean value, for a minimum of 2 experiments. […] For instance, the compounds of Example 2 and Example 39 each inhibited RIP2 kinase in the above method with a mean plC50 of 5.
Full-length human RIPK2 (receptor-interacting serine-threonine kinase 2) cDNA was purchased from Invitrogen (Carlsbad, Calif., USA, Clone ID: IOH6368, RIPK2-pENTR 221). Gateway® LR cloning was used to site-specifically recombine RIPK2 downstream to an N-terminal FLAG-6His contained within the destination vector pDEST8-FLAG-His6 according to the protocol described by Invitrogen. Transfection into Spodoptera frugiperda(Sf9) insect cells was performed using Cellfectin® (Invitrogen), according to the manufacturer's protocol.

mean pIC50: greater than 4.0
SMILES: COCCn1c(-c2c[nH]c(-c3ccc4scnc4c3)n2)nc2ccc(Br)cc21 [Example 59, 5-(4-{6-bromo-1-[2-(methyloxy)ethyl]-1H-benzimidazol-2-yl}-1H-imidazol-2-yl)-1,3-benzothiazole]

mean pIC50: greater than 4.0
SMILES: CCOc1ccc2nc(-c3c[nH]c(-c4ccc5scnc5c4)n3)n(CCOC)c2c1 [Example 60, 5-(4-{6-(ethyloxy)-1-[2-(methyloxy)ethyl]-1H-benzimidazol-2-yl}-1H-imidazol-2-yl)-1,3-benzothiazole]

mean pIC50: greater than 4.0
SMILES: COCCn1c(-c2c[nH]c(-c3ccc4scnc4c3)n2)nc2ccc(C(F)(F)F)cc21 [Example 61, 5-{4-[1-[2-(methyloxy)ethyl]-6-(trifluoromethyl)-1H-benzimidazol-2-yl]-1H-imidazol-2-yl}-1,3-benzothiazole]

mean pIC50: greater than 4.0
SMILES: COCCn1c(-c2c[nH]c(-c3ccc4scnc4c3)n2)nc2ccc(C(=O)OC)cc21 [Example 67, methyl 2-[2-(1,3-benzothiazol-5-yl)-1H-imidazol-4-yl]-1-[2-(methyloxy)ethyl]-1H-benzimidazole-6-carboxylate]

mean pIC50: greater than 4.0
SMILES: COCCn1c(-c2c[nH]c(-c3ccc4scnc4c3)n2)nc2cc(C(C)(C)O)ccc21 [Example 70, 2-{2-[2-(1,3-benzothiazol-5-yl)-1H-imidazol-4-yl]-1-[2-(methyloxy)ethyl]-1H-benzimidazol-5-yl}-2-propanol]

mean pIC50: greater than 4.0
SMILES: COCCn1c(-c2cnc(-c3ccc4scnc4c3)[nH]2)nc2ccc(C)nc21 [Example 73, 2-[2-(1,3-benzothiazol-5-yl)-1H-imidazol-4-yl]-5-methyl-3-[2-(methyloxy)ethyl]-3H-imidazo[4,5-b]pyridine]

mean pIC50: greater than 4.0
SMILES: COCCn1c(-c2cnc(-c3ccc4scnc4c3)[nH]2)nc2cc(CO)ccc21 [Example 76, {2-[2-(1,3-benzothiazol-5-yl)-1H-imidazol-4-yl]-1-[2-(methyloxy)ethyl]-1H-benzimidazol-5-yl}methanol]

mean pIC50: greater than 4.0
SMILES: COCCn1c(-c2cnc(-c3ccc4scnc4c3)[nH]2)nc2cc(C(F)(F)F)ccc21 [Example 77, 5-{4-[1-[2-(methyloxy)ethyl]-5-(trifluoromethyl)-1H-benzimidazol-2-yl]-1H-imidazol-2-yl}-1,3-benzothiazole]

mean pIC50: greater than 4.0
SMILES: COCCn1c(-c2cnc(-c3ccc4scnc4c3)[nH]2)nc2cc(S(N)(=O)=O)ccc21 [Example 79, 2-[2-(1,3-benzothiazol-5-yl)-1H-imidazol-4-yl]-1-[2-(methyloxy)ethyl]-1H-benzimidazole-5-sulfonamide]

mean pIC50: greater than 4.0
SMILES: COCCn1c(-c2cnc(-c3ccc4scnc4c3)[nH]2)nc2cc(C(=O)O)c(Cl)cc21 [Example 82, 2-[2-(1,3-benzothiazol-5-yl)-1H-imidazol-4-yl]-6-chloro-1-[2-(methyloxy)ethyl]-1H-benzimidazole-5-carboxylic acid]

Second part, the compound before the results:

SMILES: COCCn1c(-c2c[nH]c(-c3ccc4scnc4c3)n2)nc2cccc(Cl)c21 [Example 56, 5-(4-{7-chloro-1-[2-(methyloxy)ethyl]-1H-benzimidazol-2-yl}-1H-imidazol-2-yl)-1,3-benzothiazole]
mean pIC50: greater than 4.0

SMILES: COCCn1c(-c2c[nH]c(-c3ccc4scnc4c3)n2)nc2c(C)cccc21 [Example 57, 5-(4-{4-methyl-1-[2-(methyloxy)ethyl]-1H-benzimidazol-2-yl}-1H-imidazol-2-yl)-1,3-benzothiazole]
mean pIC50: greater than 4.0

SMILES: COCCn1c(-c2c[nH]c(-c3ccc4scnc4c3)n2)nc2ccc(Cl)cc21 [Example 58, 5-(4-{6-chloro-1-[2-(methyloxy)ethyl]-1H-benzimidazol-2-yl}-1H-imidazol-2-yl)-1,3-benzothiazole]
mean pIC50: greater than 4.0

SMILES: COCCn1c(-c2c[nH]c(-c3ccc4scnc4c3)n2)nc2cc(C(=O)N(C)C)c(C)cc21 [Example 62, 2-[2-(1,3-benzothiazol-5-yl)-1H-imidazol-4-yl]-N,N,6-trimethyl-1-[2-(methyloxy)ethyl]-1H-benzimidazole-5-carboxamide]
mean pIC50: greater than 4.0

SMILES: COCCn1c(-c2c[nH]c(-c3ccc4scnc4c3)n2)nc2cc(C(=O)N3CCOCC3)c(C)cc21 [Example 63, 5-{4-[6-methyl-1-[2-(methyloxy)ethyl]-5-(4-morpholinylcarbonyl)-1H-benzimidazol-2-yl]-1H-imidazol-2-yl}-1,3-benzothiazole]
mean pIC50: greater than 4.0

SMILES: COCCn1c(-c2c[nH]c(-c3ccc4scnc4c3)n2)nc2cc(C(=O)N3CCOC[C@H]3C)c(C)cc21 [Example 64, 5-(4-{6-methyl-5-{[(3R)-3-methyl-4-morpholinyl]carbonyl}-1-[2-(methyloxy)ethyl]-1H-benzimidazol-2-yl}-1H-imidazol-2-yl)-1,3-benzothiazole]
mean pIC50: greater than 4.0

SMILES: COCCn1c(-c2c[nH]c(-c3ccc4scnc4c3)n2)nc2cc(C(=O)N3CCOC[C@@H]3C)c(C)cc21 [Example 65, 5-(4-{6-methyl-5-{[(3S)-3-methyl-4-morpholinyl]carbonyl}-1-[2-(methyloxy)ethyl]-1H-benzimidazol-2-yl}-1H-imidazol-2-yl)-1,3-benzothiazole]
mean pIC50: greater than 4.0

SMILES: COCCn1c(-c2c[nH]c(-c3ccc4scnc4c3)n2)nc2cc(C(=O)N3CCN(C)CC3)c(C)cc21 [Example 66, 5-(4-{6-methyl-1-[2-(methyloxy)ethyl]-5-[(4-methyl-1-piperazinyl)carbonyl]-1H-benzimidazol-2-yl}-1H-imidazol-2-yl)-1,3-benzothiazole]
mean pIC50: greater than 4.0

SMILES: COCCn1c(-c2c[nH]c(-c3ccc4scnc4c3)n2)nc2ccc(C(=O)O)cc21 [Example 68, 2-[2-(1,3-benzothiazol-5-yl)-1H-imidazol-4-yl]-1-[2-(methyloxy)ethyl]-1H-benzimidazole-6-carboxylic acid]
mean pIC50: greater than 4.0

SMILES: COCCn1c(-c2c[nH]c(-c3ccc4scnc4c3)n2)nc2cc(C(=O)OC)ccc21 [Example 69, methyl 2-[2-(1,3-benzothiazol-5-yl)-1H-imidazol-4-yl]-1-[2-(methyloxy)ethyl]-1H-benzimidazole-5-carboxylate]
mean pIC50: greater than 4.0

SMILES: COCCn1c(-c2cnc(-c3ccc4scnc4c3)[nH]2)nc2c(F)cccc21 [Example 71, 5-(4-{4-fluoro-1-[2-(methyloxy)ethyl]-1H-benzimidazol-2-yl}-1H-imidazol-2-yl)-1,3-benzothiazole trifluoroacetate]
mean pIC50: greater than 4.0

SMILES: COCCn1c(-c2cnc(-c3ccc4scnc4c3)[nH]2)nc2cccnc21 [Example 72, 2-[2-(1,3-benzothiazol-5-yl)-1H-imidazol-4-yl]-3-[2-(methyloxy)ethyl]-3H-imidazo[4,5-b]pyridine]
mean pIC50: greater than 4.0

SMILES: COCCn1c(-c2cnc(-c3ccc4scnc4c3)[nH]2)nc2ncccc21 [Example 74, 2-[2-(1,3-benzothiazol-5-yl)-1H-imidazol-4-yl]-1-[2-(methyloxy)ethyl]-1H-imidazo[4,5-b]pyridine]
mean pIC50: greater than 4.0

SMILES: COCCn1c(-c2cnc(-c3ccc4scnc4c3)[nH]2)nc2cc(C)cnc21 [Example 75, 2-[2-(1,3-benzothiazol-5-yl)-1H-imidazol-4-yl]-6-methyl-3-[2-(methyloxy)ethyl]-3H-imidazo[4,5-b]pyridine]
mean pIC50: greater than 4.0

SMILES: COCCn1c(-c2cnc(-c3ccc4scnc4c3)[nH]2)nc2cc(S(C)(=O)=O)ccc21 [Example 78, 5-{4-[1-[2-(methyloxy)ethyl]-5-(methylsulfonyl)-1H-benzimidazol-2-yl]-1H-imidazol-2-yl}-1,3-benzothiazole]
mean pIC50: greater than 4.0

SMILES: COCCn1c(-c2cnc(-c3ccc4scnc4c3)[nH]2)nc2cc(Br)ccc21 [Example 80, 5-(4-{5-bromo-1-[2-(methyloxy)ethyl]-1H-benzimidazol-2-yl}-1H-imidazol-2-yl)-1,3-benzothiazole]
mean pIC50: greater than 4.0

SMILES: COCCn1c(-c2cnc(-c3ccc4scnc4c3)[nH]2)nc2cc(C#N)ccc21 [Example 81, 2-[2-(1,3-benzothiazol-5-yl)-1H-imidazol-4-yl]-1-[2-(methyloxy)ethyl]-1H-benzimidazole-5-carbonitrile]
mean pIC50: greater than 4.0
